Here are results for 1 molecule from article doi:10.64898/2025.12.12.693935.

Results are given in words; binding and its absence hold for the method and conditions named. Some entries that bind do so weakly or less than the wild type. Sequences can lack the tags named with a protein.

In this experiment the target is CADM1-His6 (human) (UniProt Q9BY67). The experiment can be described thus: SEC. A general note: Size exclusion chromatography separates by hydrodynamic size, large species first.

B1: CADM1-His6 (protein, UniProt Q9BY67 45-442)
chain: QNLFTKDVTVIEGEVATISCQVNKSDDSVIQLLNPNRQTIYFRDFRPLKDSRFQLLNFSSSELKVSLTNVSISDEGRYFCQLYTDPPQESYTTITVLVPPRNLMIDIQKDTAVEGEEIEVNCTAMASKPATTIRWFKGNTELKGKSEVEEWSDMYTVTSQLMLKVHKEDDGVPVICQVEHPAVTGNLQTQRYLEVQYKPQVHIQMTYPLQGLTREGDALELTCEAIGKPQPVMVTWVRVDDEMPQHAVLSGPNLFINNLNKTDNGTYRCEASNIVGKAHSDYMLYVYDPPTTIPPPTTTTTTTTTTTTTILTIITDSRAGEEGSIRAVDHAVIGGVVAVVVFAMLCLLIILGRYFARHKGTYFTHEAKGADDAADADTAIINAEGGQNNSEEKKEYFI
Turning to B1, the binding entry is listed as “binds weakly”.
